Measurements from the supplement of paper PMC10849652.
The list shows a part of the results.

Amino acid sequences for entries named in this document (tags omitted). A change or cut given only in a name is not applied to a line headed by its entry.
UniProt Q96SK2: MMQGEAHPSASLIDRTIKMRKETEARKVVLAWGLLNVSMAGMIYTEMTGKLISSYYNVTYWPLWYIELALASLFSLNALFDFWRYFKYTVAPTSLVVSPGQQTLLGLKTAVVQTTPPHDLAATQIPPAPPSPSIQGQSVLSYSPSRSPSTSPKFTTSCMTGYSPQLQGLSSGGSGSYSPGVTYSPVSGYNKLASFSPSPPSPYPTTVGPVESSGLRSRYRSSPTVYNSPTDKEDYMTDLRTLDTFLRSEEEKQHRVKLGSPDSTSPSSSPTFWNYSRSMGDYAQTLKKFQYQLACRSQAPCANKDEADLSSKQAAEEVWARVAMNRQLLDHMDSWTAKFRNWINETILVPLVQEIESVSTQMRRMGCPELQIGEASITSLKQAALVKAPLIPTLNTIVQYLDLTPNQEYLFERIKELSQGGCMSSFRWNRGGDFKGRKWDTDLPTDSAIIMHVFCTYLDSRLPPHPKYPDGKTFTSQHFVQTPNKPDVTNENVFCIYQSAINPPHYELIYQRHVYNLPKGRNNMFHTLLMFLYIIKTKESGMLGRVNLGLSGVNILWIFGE
UniProt Q96A57: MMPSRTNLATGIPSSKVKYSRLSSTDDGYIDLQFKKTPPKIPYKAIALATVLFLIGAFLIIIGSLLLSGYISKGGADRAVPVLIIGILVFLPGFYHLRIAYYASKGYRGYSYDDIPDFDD
UniProt Q96I45: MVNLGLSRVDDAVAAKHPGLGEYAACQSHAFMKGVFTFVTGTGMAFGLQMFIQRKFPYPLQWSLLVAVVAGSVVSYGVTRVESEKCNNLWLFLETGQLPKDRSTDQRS
UniProt O14763, whole entry, looked up: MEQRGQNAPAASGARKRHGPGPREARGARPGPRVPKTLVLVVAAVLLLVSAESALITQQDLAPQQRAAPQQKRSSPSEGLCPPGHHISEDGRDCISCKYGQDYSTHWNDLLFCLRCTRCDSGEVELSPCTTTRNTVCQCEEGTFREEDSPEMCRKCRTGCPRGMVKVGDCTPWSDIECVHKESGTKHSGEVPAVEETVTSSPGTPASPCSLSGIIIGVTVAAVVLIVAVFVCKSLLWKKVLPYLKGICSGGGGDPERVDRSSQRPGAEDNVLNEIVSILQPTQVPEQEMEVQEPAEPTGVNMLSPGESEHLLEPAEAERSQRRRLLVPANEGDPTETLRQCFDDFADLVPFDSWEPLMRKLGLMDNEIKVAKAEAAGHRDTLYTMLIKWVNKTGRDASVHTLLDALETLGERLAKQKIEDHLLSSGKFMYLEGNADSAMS
UniProt Q9NWH2: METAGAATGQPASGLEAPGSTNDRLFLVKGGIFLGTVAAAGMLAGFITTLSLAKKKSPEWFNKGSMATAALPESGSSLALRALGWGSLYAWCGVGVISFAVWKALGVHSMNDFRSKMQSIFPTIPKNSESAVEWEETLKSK
UniProt Q8IUX1: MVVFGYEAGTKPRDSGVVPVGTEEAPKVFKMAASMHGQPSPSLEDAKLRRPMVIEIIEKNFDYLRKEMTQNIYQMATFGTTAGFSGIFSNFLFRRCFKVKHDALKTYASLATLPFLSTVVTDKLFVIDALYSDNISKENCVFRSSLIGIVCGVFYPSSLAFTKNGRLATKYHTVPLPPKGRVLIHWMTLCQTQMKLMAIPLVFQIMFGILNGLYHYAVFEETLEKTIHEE
UniProt Q9NX00: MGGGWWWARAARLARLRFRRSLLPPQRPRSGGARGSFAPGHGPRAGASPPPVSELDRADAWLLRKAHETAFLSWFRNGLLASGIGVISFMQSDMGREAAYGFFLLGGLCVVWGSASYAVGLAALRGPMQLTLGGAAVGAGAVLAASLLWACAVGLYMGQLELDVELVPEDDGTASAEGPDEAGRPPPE
UniProt O94886: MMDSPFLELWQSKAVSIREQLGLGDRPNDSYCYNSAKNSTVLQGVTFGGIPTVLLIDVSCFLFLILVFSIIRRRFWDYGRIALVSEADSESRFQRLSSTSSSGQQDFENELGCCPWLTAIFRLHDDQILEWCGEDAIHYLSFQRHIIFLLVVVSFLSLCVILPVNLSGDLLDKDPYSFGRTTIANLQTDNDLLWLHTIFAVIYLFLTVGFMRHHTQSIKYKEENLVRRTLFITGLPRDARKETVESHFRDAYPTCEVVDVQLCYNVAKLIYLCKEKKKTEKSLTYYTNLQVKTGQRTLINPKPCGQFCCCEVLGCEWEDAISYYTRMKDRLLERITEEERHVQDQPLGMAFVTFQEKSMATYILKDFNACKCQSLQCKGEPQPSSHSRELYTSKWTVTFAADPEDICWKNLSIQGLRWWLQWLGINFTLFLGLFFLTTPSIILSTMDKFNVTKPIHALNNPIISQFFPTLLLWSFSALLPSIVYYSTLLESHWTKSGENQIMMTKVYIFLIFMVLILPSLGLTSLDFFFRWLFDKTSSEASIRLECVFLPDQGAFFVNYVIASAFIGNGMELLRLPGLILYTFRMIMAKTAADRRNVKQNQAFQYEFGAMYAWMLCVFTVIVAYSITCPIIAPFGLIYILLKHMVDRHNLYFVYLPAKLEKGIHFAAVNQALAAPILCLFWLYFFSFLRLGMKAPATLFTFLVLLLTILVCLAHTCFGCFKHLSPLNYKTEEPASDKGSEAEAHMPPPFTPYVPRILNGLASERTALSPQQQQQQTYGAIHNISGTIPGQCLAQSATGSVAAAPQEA
UniProt P17152: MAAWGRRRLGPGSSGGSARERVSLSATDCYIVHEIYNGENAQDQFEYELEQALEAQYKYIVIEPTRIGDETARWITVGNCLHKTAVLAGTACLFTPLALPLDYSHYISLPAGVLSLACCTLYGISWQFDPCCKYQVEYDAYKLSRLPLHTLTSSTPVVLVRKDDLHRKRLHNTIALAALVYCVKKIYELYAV
UniProt Q6UW68: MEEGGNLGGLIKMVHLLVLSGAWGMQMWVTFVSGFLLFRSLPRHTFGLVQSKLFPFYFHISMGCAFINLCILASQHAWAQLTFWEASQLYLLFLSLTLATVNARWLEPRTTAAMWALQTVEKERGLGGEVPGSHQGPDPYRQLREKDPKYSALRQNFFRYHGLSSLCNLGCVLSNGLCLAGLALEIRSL
UniProt Q86UB9: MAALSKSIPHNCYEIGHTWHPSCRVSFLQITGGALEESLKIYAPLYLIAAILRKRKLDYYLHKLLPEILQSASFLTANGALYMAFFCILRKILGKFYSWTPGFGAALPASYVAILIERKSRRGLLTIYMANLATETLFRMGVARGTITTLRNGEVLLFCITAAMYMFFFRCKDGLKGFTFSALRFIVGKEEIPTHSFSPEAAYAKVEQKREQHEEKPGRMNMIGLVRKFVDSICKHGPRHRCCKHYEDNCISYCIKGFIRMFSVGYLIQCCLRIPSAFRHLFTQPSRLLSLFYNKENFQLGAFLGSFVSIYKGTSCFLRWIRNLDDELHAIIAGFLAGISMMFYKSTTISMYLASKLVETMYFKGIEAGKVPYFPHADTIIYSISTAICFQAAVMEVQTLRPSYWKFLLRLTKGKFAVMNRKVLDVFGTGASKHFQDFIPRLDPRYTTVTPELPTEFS
UniProt Q9NVH6: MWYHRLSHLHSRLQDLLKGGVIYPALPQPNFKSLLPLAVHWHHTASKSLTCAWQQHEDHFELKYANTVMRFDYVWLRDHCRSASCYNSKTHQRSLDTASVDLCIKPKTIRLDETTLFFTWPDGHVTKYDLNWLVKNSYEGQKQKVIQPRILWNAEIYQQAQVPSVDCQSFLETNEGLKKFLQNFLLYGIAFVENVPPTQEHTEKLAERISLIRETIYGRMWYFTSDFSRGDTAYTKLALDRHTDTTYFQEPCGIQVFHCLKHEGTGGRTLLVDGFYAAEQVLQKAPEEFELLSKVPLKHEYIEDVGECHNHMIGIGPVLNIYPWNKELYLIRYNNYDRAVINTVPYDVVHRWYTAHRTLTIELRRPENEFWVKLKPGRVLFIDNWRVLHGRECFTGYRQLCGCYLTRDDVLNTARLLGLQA
UniProt Q9BVT8: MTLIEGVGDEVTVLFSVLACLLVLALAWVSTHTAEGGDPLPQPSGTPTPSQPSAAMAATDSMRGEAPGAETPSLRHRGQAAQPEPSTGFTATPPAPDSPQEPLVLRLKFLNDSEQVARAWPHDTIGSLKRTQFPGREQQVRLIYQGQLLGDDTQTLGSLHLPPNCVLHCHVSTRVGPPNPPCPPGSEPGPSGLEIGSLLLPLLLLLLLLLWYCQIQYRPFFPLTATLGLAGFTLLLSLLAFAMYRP
UniProt O00206, whole entry, looked up: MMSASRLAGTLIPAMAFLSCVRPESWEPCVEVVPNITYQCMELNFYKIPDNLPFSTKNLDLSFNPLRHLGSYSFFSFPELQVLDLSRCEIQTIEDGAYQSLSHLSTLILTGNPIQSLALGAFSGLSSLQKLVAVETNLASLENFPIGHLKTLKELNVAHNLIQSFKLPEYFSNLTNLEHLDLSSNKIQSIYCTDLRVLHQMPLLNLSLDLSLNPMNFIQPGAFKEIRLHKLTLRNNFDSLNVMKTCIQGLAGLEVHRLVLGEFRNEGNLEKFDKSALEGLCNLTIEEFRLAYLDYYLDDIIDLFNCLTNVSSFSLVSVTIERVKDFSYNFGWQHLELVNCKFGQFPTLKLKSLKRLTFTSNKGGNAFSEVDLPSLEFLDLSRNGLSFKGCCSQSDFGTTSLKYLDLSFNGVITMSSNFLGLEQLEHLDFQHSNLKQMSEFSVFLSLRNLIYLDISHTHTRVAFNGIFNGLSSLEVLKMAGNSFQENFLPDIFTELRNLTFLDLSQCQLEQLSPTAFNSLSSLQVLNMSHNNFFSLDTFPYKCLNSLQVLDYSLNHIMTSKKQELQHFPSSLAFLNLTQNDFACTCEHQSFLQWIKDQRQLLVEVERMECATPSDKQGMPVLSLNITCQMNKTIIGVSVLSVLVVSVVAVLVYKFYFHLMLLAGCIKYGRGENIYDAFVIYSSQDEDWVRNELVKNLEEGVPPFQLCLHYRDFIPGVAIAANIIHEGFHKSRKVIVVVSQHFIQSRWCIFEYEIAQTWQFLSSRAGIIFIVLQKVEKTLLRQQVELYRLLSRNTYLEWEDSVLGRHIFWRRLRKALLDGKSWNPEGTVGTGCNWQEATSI
UniProt Q9H1E5: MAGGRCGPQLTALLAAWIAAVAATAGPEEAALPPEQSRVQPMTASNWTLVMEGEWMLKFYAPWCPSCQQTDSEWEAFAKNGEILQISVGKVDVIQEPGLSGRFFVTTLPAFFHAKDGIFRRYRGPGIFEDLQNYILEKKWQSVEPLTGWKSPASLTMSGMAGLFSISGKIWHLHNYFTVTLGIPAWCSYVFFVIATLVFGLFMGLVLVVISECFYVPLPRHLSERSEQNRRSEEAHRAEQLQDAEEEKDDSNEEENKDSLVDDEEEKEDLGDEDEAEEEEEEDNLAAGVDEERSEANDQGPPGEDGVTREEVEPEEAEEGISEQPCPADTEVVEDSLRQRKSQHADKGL
UniProt Q9BSA9: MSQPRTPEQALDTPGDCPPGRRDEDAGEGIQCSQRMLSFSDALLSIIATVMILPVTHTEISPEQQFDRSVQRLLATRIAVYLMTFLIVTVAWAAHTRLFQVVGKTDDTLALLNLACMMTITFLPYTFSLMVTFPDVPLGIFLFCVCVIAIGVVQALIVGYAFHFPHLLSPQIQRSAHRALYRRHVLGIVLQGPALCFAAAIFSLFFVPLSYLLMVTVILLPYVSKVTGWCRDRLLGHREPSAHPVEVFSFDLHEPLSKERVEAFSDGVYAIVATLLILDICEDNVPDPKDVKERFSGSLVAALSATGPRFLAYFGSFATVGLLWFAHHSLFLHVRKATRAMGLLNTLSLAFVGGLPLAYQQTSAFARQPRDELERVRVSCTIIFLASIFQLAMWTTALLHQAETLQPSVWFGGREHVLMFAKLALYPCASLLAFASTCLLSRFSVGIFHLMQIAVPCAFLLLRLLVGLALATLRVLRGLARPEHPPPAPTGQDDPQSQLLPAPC
UniProt Q9P0S9: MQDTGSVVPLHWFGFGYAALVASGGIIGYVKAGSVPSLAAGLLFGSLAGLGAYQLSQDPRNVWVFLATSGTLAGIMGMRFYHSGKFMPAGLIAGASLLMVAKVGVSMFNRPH
UniProt Q9H061: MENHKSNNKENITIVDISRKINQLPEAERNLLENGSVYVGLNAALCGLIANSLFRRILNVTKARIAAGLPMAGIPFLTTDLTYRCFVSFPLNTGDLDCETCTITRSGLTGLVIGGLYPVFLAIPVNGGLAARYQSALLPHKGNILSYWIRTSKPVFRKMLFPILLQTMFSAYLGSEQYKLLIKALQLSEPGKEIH
UniProt Q9BRN9: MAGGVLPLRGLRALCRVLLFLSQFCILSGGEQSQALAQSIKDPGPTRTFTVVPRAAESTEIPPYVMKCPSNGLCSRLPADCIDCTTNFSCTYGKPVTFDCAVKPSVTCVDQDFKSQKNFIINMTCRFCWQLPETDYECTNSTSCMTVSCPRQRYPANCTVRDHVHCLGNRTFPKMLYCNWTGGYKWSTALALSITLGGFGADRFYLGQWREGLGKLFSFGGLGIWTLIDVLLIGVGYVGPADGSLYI
UniProt Q15363: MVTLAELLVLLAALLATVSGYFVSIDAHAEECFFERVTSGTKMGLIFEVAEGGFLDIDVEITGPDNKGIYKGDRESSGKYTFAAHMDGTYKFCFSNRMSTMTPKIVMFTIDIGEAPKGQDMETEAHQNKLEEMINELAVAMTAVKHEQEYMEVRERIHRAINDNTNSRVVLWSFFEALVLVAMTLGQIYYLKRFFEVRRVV

Compound: c1cn2cc(-c3ccc4cn[nH]c4c3)nc(Nc3ccc(N4CCOCC4)cc3)c2n1 [entospletinib]
Assay: log2 fold change, soluble protein after heating vs DMSO (PISA); higher = thermal stabilisation; K562 cells, 10 uM, 30 min; active = over 0.2 and 3.5 SD of the protein, either way, in both replicates (recomputed)
In short: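 K562 cells at 2×10^6 cells/mL were given 10 μM compound for 30 min. Aliquots then went through 3 min of heating across 48°C-58°C, were pooled, and were extracted in PBS with 0.5% NP-40 at 4°C, and the supernatant after 21,000xg for 90 min was quantified by TMTpro 16plex LC-MS/MS with channel sums equalised. Thermal stability relative to control samples, from duplicates, is given as log2 fold change.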

log2 fold change, inactive:
TMEM209 (UniProt Q96SK2) -0.083
TMEM101 (UniProt Q96IK0) 0.023
TMEM62 (UniProt Q0P6H9) -0.051
TMEM230 isoform 2 (UniProt Q96A57) -0.038
TMEM141 (UniProt Q96I45) -0.113
TMED4 (UniProt Q7Z7H5) 0.047
TNFRSF10B (UniProt O14763) -0.05
TMED1 (UniProt Q13445) -0.022
TMEM242 (UniProt Q9NWH2) 0.017
TMEM126B (UniProt Q8IUX1) 0.014
TMEM160 (UniProt Q9NX00) 0.06
TMEM186 (UniProt Q96B77) -0.017
TMEM63A (UniProt O94886) 0.019
TMPO (UniProt P42166) -0.028
TMEM11 (UniProt P17152) 0.011
TMEM205 (UniProt Q6UW68) 0.05
TMEM135 (UniProt Q86UB9) 0.039
TMEM185B (UniProt Q9H7F4) 0
TMLHE isoform 8 (UniProt Q9NVH6) -0.026
TMEM115 (UniProt Q12893) -0.009
TMUB1 (UniProt Q9BVT8) -0.076
TMEM245 (UniProt Q9H330) -0.096
TLR4 (UniProt O00206) -0.008
TMX4 (UniProt Q9H1E5) -0.003
TMEM175 (UniProt Q9BSA9) -0.046
TMEM14C (UniProt Q9P0S9) 0.093
TMEM126A (UniProt Q9H061) 0.023
TM2D3 (UniProt Q9BRN9) -0.161
TMED2 (UniProt Q15363) -0.01
